Numbering of substitutions follows the chain as printed. Names may count otherwise. No constants are given. Whether binding was seen depends on the method and setting. Binding seen in cells or lysates may run through a third protein. Some results given as binding are weak or reduced against the parent protein; the word gives no strength. For part of these data: Tags and fused reporters may be left off the sequences shown. Values belong to the binder of their own block, whether it stands above or below them.
Experiments:
[1] = molecular target: T1, Tim17^N64C (in the SCF background) (S. cerevisiae) (UniProt P39515); assay: cross-linking; in organello: 35S-labelled precursor arrested at TOM–TIM23 import sites of isolated yeast mitochondria (5 µM MTX for the DHFR fusions), then 1 mM MBS (cysteine- and amino-reactive, 7.3 Å) 30 min on ice in SEM buffer; SDS–PAGE and autoradiography
T1 sequence: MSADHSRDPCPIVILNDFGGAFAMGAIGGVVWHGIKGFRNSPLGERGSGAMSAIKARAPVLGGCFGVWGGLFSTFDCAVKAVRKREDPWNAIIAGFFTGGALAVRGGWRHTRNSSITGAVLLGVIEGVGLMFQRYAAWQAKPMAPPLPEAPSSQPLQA

[2] = molecular target: T2, Tim17^K36C (in the SCF background) (S. cerevisiae) (UniProt P39515); assay: as above
T2 sequence: T1 sequence with K36C, C64N

[3] = molecular target: T3, Tim17 (S. cerevisiae) (UniProt P39515); assay: cross-linking; mitochondria heat-shocked at 37 °C for 10 min, import at 25 °C, chemical crosslinking (crosslinker not named); b2(110)∆19-DHFR^# products analysed directly, Cox5a–sfGFP products purified with a GFP nanobody; SDS–PAGE and autoradiography
T3 sequence: T1 sequence with C64N, G118C, V120C

[4] = molecular target: T4, Tim17^Linker-2xStrep (S. cerevisiae) (UniProt P39515); assay: as above
T4 sequence: T1 sequence with C64N, G118C, V120C

[5] = molecular target: T5, Tim23 (S. cerevisiae) (UniProt P32897); assay: cross-linking; disulfide bond formation with 4-DPS after arrest of recombinant Jac1–sfGFP; TOM–TIM23 supercomplexes isolated with a GFP nanobody, eluate on non-reducing SDS–PAGE
T5 sequence: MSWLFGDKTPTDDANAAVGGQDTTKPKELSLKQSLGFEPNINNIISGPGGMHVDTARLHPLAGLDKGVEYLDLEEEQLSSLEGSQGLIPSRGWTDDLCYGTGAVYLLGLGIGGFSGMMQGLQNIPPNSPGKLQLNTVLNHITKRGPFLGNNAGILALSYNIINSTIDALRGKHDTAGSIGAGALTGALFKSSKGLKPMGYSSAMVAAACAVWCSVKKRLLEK

[6] = molecular target: T5, Tim23 (S. cerevisiae); assay: cross-linking; disulfide bond formation in organello: isolated mitochondria untreated or with 0.2 mM 4-DPS 10 min on ice (lost with DTT); non-reducing SDS–PAGE, immunodecoration against Tim17 and Tim23
[7] = molecular target: T6, Jac1–sfGFP (UniProt P53193); assay: pull-down; recombinant Jac1–sfGFP (2.5 µM) arrested in isolated mitochondria, oxidised with 4-DPS, solubilised in 1% digitonin, captured on GFP nanobody magnetic agarose; SDS–PAGE and immunodecoration; only the target purified
T6 sequence: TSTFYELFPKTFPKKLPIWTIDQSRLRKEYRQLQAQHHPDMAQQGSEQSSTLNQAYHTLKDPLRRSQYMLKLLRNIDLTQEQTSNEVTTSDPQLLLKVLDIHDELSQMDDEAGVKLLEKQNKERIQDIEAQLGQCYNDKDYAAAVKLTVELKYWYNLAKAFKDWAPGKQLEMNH

[8] = molecular target: T6, Jac1–sfGFP; assay: pull-down; tandem purification after arrest of Jac1–sfGFP, 1% digitonin: first Strep-Tactin XT (Tim17^2xStrep) or Ni-NTA (^HisSumo*Tim23), then GFP nanobody; SDS–PAGE and immunodecoration; only the target purified
[9] = molecular target: T7, Tim17^Linker-2xStrep (S. cerevisiae), P39515; assay: pull-down; mitochondria co-expressing tagged and non-tagged copies of the same subunit, with arrested Jac1–sfGFP; first elution (Strep-Tactin XT or Ni-NTA) and second elution (GFP nanobody) compared by immunodecoration; details: remark: other sources report otherwise
T7 chain: T1 sequence with C64N, G118C, V120C

[10] = molecular target: T8, ^HisSUMOstarTim23 (S. cerevisiae), P32897; assay: as above; details: remark: other sources report otherwise
T8 chain: T5 sequence

binding [5]: binds | binding [6]: binds | binding [7]: binds
B2: Tim17^N16C (in the SCF background) (protein, UniProt P39515 1-158)
chain: T1 sequence with N16C, C64N

binding [7]: binds
B3: Tim23 (protein, UniProt P32897 1-222)
chain: T5 sequence

binding [8]: binds
B5: ^HisSUMOstarTim23 (protein, UniProt P32897 1-222)
chain: T5 sequence

binding [10]: no binding
B7: Tim23, P32897 1-222 (protein)
chain: T5 sequence

The next lines start with the binder.

B1: Cox5a(1–130)–sfGFP (domain or fragment, UniProt P00424 1-130)
chain: MLRNTFTRAGGLSRITSVRFAQTHALSNAAVMDLQSRWENMPSTEQQDIVSKLSERQKLPWAQLTEPEKQAVWYISYGEWGPRRPVLNKGDSSFIAKGVAAGLLFSVGLFAVVRMAGGQDAKTMNKEWQL
modifications: [35S]methionine-labelled
binding [1]: binds | binding [2]: binds | binding [3]: binds | binding [4]: binds

B4: Tim17^Linker-2xStrep (protein, UniProt P39515 1-158)
chain: T1 sequence with C64N, G118C, V120C
binding [8]: binds

B6: Tim17, P39515 1-158 (protein)
chain: T1 sequence with C64N, G118C, V120C
binding [9]: no binding

Reference: PMC10511324
